# These are yes or no findings as the source states them, for the method shown. Binding seen in cells or lysates may run through a third protein. Some entries that bind do so weakly or less than the wild type.
# The chains behind the UniProt entries cited, without tags or fusion partners.
# UniProt Q8R4B8: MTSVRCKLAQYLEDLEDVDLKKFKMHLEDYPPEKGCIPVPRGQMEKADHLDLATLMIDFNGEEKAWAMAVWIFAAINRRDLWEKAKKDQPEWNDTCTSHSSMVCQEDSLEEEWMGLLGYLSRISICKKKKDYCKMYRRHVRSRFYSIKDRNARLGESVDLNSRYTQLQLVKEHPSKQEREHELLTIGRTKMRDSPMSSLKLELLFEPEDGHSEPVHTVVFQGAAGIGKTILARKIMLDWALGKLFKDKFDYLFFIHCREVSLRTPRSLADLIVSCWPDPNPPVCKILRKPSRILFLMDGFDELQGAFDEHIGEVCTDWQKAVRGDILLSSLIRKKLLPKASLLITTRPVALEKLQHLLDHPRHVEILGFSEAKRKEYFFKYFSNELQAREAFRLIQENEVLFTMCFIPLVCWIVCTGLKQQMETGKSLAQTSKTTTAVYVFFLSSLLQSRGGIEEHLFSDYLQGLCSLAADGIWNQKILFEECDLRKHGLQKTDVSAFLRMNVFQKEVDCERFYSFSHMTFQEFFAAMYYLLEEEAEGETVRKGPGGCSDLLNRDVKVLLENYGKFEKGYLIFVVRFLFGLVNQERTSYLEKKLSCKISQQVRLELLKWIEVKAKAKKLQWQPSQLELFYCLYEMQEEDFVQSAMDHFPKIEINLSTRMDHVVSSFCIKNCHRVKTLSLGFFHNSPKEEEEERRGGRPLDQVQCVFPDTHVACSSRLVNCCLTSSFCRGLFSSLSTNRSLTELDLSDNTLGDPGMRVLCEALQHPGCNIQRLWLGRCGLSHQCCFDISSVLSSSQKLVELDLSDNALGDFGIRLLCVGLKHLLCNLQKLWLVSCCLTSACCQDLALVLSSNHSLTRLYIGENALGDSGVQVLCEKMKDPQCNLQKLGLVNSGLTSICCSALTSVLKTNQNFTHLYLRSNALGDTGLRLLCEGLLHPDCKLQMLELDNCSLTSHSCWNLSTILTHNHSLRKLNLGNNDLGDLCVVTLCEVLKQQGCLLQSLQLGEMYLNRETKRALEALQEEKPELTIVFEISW
# Target: NLRP3 (mouse (endogenous in HoxB8 macrophages)) (UniProt Q8R4B8)
# Assay: co-IP; NLRP3 immune precipitated from lysates of HoxB8 macrophages with a magnetic bead-coupled antibody; cells untreated or treated with LPS or LPS + GM-CSF for 12 h; beads without NLRP3 antibody as negative control; western blot for NLRP3 and caspase-1
row,binding,Binder
1,binds,"caspase‐1 p10‐fragment (domain or fragment, UniProt P29452 315-402) GIKKAHIEKDFIAFCSSTPDNVSWRHPVRGSLFIESLIKHMKEYAWSCDLEDIFRKVRFSFEQPEFRLQMPTADRVTLTKRFYLFPGH"
2,binds,"caspase‐1 (protein, UniProt P29452 1-402) MADKILRAKRKQFINSVSIGTINGLLDELLEKRVLNQEEMDKIKLANITAMDKARDLCDHVSKKGPQASQIFITYICNEDCYLAGILELQSAPSAETFVATEDSKGGHPSSSETKEEQNKEDGTFPGLTGTLKFCPLEKAQKLWKENPSEIYPIMNTTTRTRLALIICNTEFQHLSPRVGAQVDLREMKLLLEDLGYTVKVKENLTALEMVKEVKEFAACPEHKTSDSTFLVFMSHGIQEGICGTTYSNEVSDILKVDTIFQMMNTLKCPSLKDKPKVIIIQACRGEKQGVVLLKDSVRDSEEDFLTDAIFEDDGIKKAHIEKDFIAFCSSTPDNVSWRHPVRGSLFIESLIKHMKEYAWSCDLEDIFRKVRFSFEQPEFRLQMPTADRVTLTKRFYLFPGH"

# — article PMC9346485
